These are yes or no findings as the source states them, for the method shown. In cells and extracts the contact can be indirect. Some binding calls cover weakened binding; strength is not graded here. Where a sequence is shown, tags or fusion partners need not be part of it.

Sequences of proteins named here, by UniProt entry; tags and fusion partners are left off.
UniProt P08753: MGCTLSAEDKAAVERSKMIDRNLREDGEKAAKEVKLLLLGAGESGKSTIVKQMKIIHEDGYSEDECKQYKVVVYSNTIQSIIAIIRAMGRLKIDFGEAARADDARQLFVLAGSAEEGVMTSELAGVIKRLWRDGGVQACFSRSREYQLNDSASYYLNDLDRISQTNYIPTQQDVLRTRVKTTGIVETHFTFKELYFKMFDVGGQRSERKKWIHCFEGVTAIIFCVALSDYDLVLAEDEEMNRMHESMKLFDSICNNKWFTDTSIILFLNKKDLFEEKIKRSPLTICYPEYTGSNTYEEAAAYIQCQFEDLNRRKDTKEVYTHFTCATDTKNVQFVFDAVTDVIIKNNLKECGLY
UniProt P04897: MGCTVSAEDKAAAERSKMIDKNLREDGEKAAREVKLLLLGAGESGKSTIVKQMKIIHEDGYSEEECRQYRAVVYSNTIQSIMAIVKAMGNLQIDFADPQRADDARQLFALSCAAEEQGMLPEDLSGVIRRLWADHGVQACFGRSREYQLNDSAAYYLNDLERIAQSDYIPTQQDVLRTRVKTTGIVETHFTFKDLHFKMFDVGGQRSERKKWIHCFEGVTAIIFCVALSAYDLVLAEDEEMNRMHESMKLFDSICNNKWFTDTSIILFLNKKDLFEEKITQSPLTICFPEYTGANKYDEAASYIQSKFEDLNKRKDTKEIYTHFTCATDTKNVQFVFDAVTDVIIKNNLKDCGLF
UniProt P10824: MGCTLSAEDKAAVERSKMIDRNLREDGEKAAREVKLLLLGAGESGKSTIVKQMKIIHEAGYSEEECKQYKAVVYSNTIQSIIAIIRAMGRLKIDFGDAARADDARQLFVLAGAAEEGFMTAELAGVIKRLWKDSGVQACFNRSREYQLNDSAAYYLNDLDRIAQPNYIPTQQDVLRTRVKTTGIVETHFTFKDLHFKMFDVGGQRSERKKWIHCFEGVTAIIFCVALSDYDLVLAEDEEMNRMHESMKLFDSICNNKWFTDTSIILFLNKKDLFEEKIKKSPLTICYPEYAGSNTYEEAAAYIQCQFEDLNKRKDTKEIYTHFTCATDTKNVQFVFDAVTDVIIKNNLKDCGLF

Experiment [1] concerns the target GST-Gαi3 preloaded with GDP (inactive) (rat) (UniProt P08753). Put plainly: competition in GST pulldown, His-GIV-CT varied, His-DAPLE-CT fixed (FIG. 10B).
Another experiment concerns the target GST-Gαi2 (rat) (UniProt P04897). Put plainly: GST pulldown, purified proteins (FIG. 1G).
Another experiment deals with GST-Gαi1 (rat) (UniProt P10824). The experiment can be described thus: GST pulldown, purified proteins (FIG. 1G).
The target in experiment [2] is GST-Gαi3 preloaded with GDP (inactive) (rat) (UniProt P08753). Put plainly: GST-Gαi3 (GDP) pulldown from Cos7 lysates (FIG. 18E); the WT binds.

B1: His-GIV-CT (aa 1660-1870) (protein, UniProt Q3V6T2 1660-1870, looked up, not shown: small tags and cut ends)
chain: ISETLESRHHKIKTGSPGSEVVTLQQFLEESNKLTSVQIKSSSQENLLDEVMKSLSVSSDFLGKDKPVSCGLARSVSGKTPGDFYDRRTTKPEFLRPGPRKTEDTYFISSAGKPTPGTQGKIKLVKESSLSRQSKDSNPYATLPRASSVISTAEGTTRRTSIHDFLTKDSRLPISVDSPPAAADSNTTAASNVDKVQESRNSKSRSREQQS
As for B1, the binding result in experiment [1] is “binds”.

B2: His-DAPLE-CT (aa 1650-2028) (protein, not shown: small tags and cut ends)
chain: GTAPPYVGVRPCSASPSSEMVTLEEFLEESNRSSPTHDTPSCRDDLLSDYFRKASDPPAIGGQPGPPAKKEGAKMPTNFVAPTVKMAAPTSEGRPLKPGQYVKPNFRLTEAEAPPSVAPRQAQPPQSLSLGRPRQAPVPPASHAPASRSASLSRAFSLASADLLRASGPEACKQESPQKLGAPEALGGRETGSHTLQSPAPPSSHSLARERTPLVGKAGSSCQGPGPRSRPLDTRRFSLAPPKEERLAPLHQSATAPAIATAGAGAAAAGSGSNSQLLHFSPAAAPAARTKPKAPPRSGEVATITPVRAGLSLSEGDGVPGQGCSEGLPAKSPGRSPDLAPHLGRALEDCSRGSVSKSSPASPEPGGDPQTVWYEYGCV
For the molecule B2, the binding entry with GST-Gαi2 (rat) and with GST-Gαi1 (rat) was “binds” each time.

B3: myc-DAPLE-V2 WT (protein, not shown: small tags and cut ends)
chain: MSVLSPGDLKPKRGSPHRGSLDRTDASTDLAMRSWPSELGSRTCSTSATTTAPSNSTPIARHPGRTKGYNSDDNLCEPSLEFEVPNHRQYVSRPSSLESSRNTSSNSSPLNLKGSSEQLHGRSESFSSEDLIPSRDLATLPREASTPGRNALGRHEYPLPRNGPLPQEGAQKRGTAPPYVGVRPCSASPSSEMVTLEEFLEESNRSSPTHDTPSCRDDLLSDYFRKASDPPAIGGQPGPPAKKEGAKMPTNFVAPTVKMAAPTSEGRPLKPGQYVKPNFRLTEAEAPPSVAPRQAQPPQSLSLGRPRQAPVPPASHAPASRSASLSRAFSLASADLLRASGPEACKQESPQKLGAPEALGGRETGSHTLQSPAPPSSHSLARERTPLVGKAGSSCQGPGPRSRPLDTRRFSLAPPKEERLAPLHQSATAPAIATAGAGAAAAGSGSNSQLLHFSPAAAPAARTKPKAPPRSGEVATITPVRAGLSLSEGDGVPGQGCSEGLPAKSPGRSPDLAPHLGRALEDCSRGSVSKSSPASPEPGGDPQTVWYEYGCV
Turning to B3, the binding result in experiment [2] is recorded as “binds”.

These data come from patent US20160362464A1.
